From article PMC10113393
No constants are given. Whether binding was seen depends on the method and setting. In cells and extracts the contact can be indirect. Here binding means that the protein was enriched with, or labelled near, the bait; the list need not be complete.

The chains behind the UniProt entries cited, without tags or fusion partners.
UniProt P33176: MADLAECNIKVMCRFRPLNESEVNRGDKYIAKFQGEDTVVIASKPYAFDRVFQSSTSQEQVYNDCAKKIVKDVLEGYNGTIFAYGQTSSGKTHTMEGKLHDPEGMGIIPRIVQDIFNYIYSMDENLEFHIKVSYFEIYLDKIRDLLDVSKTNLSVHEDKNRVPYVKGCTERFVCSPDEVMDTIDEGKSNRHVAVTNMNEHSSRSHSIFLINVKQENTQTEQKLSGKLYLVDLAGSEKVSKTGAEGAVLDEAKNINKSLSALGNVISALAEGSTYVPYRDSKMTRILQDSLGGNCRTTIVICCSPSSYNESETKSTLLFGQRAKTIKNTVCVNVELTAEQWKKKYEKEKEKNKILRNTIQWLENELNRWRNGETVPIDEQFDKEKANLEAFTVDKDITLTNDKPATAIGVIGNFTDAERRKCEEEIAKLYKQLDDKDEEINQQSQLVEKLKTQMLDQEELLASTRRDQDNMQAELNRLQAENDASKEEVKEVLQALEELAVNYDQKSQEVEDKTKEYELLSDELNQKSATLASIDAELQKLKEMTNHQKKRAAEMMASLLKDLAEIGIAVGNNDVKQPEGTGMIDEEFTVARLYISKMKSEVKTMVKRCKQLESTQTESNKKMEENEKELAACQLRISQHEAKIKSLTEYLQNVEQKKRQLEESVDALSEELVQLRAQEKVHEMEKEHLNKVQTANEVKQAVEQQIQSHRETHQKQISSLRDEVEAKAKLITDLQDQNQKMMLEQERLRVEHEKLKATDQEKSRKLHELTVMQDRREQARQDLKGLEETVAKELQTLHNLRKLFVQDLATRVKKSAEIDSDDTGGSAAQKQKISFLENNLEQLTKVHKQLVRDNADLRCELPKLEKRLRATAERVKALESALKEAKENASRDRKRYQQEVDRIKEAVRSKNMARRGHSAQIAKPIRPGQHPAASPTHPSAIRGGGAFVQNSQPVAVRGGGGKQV
UniProt O00429: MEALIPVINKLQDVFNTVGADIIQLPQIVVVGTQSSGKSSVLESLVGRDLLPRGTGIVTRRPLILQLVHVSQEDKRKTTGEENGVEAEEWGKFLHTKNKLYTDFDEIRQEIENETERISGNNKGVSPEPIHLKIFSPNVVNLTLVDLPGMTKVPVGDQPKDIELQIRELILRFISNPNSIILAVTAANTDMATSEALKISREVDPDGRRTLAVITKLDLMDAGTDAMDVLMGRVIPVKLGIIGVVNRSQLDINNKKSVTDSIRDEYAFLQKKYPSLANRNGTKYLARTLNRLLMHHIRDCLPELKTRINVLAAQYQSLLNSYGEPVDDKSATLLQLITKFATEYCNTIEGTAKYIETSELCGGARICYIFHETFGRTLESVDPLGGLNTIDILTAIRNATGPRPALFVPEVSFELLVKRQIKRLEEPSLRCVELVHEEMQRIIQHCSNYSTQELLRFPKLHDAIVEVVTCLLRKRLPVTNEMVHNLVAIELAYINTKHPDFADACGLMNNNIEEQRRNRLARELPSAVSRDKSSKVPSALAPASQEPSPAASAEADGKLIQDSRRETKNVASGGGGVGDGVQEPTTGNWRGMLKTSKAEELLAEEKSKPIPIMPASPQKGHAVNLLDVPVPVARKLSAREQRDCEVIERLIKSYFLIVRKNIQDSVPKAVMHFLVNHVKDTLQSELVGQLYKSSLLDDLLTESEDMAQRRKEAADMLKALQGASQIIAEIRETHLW

Molecular target: Kinesin family member 5B (human (endogenous in A549 and SK-N-BE(2)C)) (UniProt P33176)
Test: affinity purification with mass spectrometry; total protein of A549 cells incubated with the antibody against KIF5B; IgG isotype control; Dynabeads Protein A; nano-LC-MS/MS

In the case of “GTPase dynamin-related protein 1 (from UniProt O00429 1-736)”, the binding is reported as “binds”.
